Test results reported in PubChem BioAssay AID743402 (Broad Institute, 2014).
Out of some 1,200 compounds screened, about 140 (12%) were called active.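 The calls were made as follows: active = fitted curve falls past -35% activity change at a dose under twice the top valid dose, in every replicate test; inconclusive = replicate tests disagree on the call; inactive = the rest, including activity in the opposite direction.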 The list lacks most of the strong results.

Assay: restoration of mutant CFTR halide transport – FRT cells, YFP quenching, cherry-pick, dose response (AID 743402);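 also: compounds act as correctors raising surface CFTR-F508del before acute activation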
Conditions: FRT CFTR-F508del YFP iodide quenching, 24 h, channel opened with forskolin and a potentiator; at 26 µM (top of the series) unless noted

Activity change, negative = more quenching (active), inactive:
O=c1cc(-c2ccccc2)[nH]c2ccc(F)cc12 9.79%, Fc1ccc2nc(C3CCN(Cc4nc(CC5CC5)no4)CC3)[nH]c2c1 13.3%, CC(C)(C)C1COc2ccccc2N1C(=O)c1cccc(Cl)c1 (stereo unspecified) 0%, NS(=O)(=O)c1ccc(Cl)c(S(N)(=O)=O)c1 3.33%, CCOc1ccc(NS(=O)(=O)c2cc(NC(=O)CCNC(=O)c3ccco3)ccc2OC)cc1 10%, COc1cc(-c2nccc3cc4c(cc23)OCO4)cc(OC)c1OC -6.25%, CCNC(=O)C[C@@H]1C=C[C@@H](NC(=O)NC2CCCCC2)[C@H](CO)O1 0%, O=C(N/N=C/c1c(O)ccc2ccccc12)c1ccc(CO)nc1 -6.25%, O=C(NCc1ccccc1)C1Cc2c(-c3ccc(Cl)cc3)ccnc2O1 (stereo unspecified) -6.67%, COc1ccccc1CNC(=O)Nc1nc(C(N)Cc2ccc(Cl)cc2)cs1 (stereo unspecified) -13.3%, CC1CN(S(=O)(=O)c2ccc(C(=O)Nc3ccccc3F)cc2)CC(C)O1 (stereo unspecified) 3.12%, CC(OC(=O)c1cccs1)C(=O)NC1CCCCC1C (stereo unspecified) -3.12%, COc1ccccc1N=C1SC(C(=O)Nc2cccc(Cl)c2Cl)C(N)=C1C(N)=O (stereo unspecified) 9.13%, CN(c1ccc(OCCOc2ccccc2Cl)cc1)S(=O)(=O)c1ccccc1 6.67%, Cc1ccc(-n2cc(-c3ccccc3)c3c(N4CCOCC4)ncnc32)cc1 27.8%, O=C(NCc1ccccc1)C1Cc2c(-c3cccc(F)c3)ccnc2O1 (stereo unspecified) 0%, C1CCC(C(CC2CCCCN2)C2CCCCC2)CC1 (stereo unspecified) -23.3%, CN(C)CCn1c2ccccc2c2nc3ccc([N+](=O)[O-])cc3cc21 -32.1%, Cc1ccc(-c2csc(Nc3ccccn3)n2)cc1 -29%, COc1ccc(CCC(=O)N2CCN(S(=O)(=O)c3ccc(OC(F)(F)F)cc3)CC2)cc1 13.3%, NS(=O)(=O)c1ccc(CNc2ccc3ccccc3n2)cc1 3.12%, O=C(Nc1ccn(CCCNC2CCN(Cc3ccccc3)CC2)c(=O)n1)OCc1ccccc1 12.5%, COc1ccccc1NS(=O)(=O)c1cc(N=N/C(C(=O)Nc2ccc(Cl)cc2)=C(/C)O)ccc1C 3.33%, CN(CC1CCCO1)S(=O)(=O)c1ccc(C(=O)Nc2nnc(-c3ccccc3)o2)cc1 (stereo unspecified) -1.85%, COc1cc(-c2noc(C)c2C#Cc2ccccn2)cc(OC)c1OC -6.25%, O=C(c1ccc(S(=O)(=O)NCC2CCCO2)cc1)N1CCN(c2cccc(Cl)c2)CC1 (stereo unspecified) 13.3%, Cc1cc2oc(=O)cc(-c3ccccc3)c2c(C)c1-c1ccc(O)cc1 -14.3%, CC(=O)Nc1ccc(S(=O)(=O)Nc2cccc(-c3nc4cc(C)ccc4o3)c2)cc1 -6.67%, COc1cccc(/C=N/NC(=O)C(=O)N/N=C/c2cccc(OC)c2O)c1O -12.2%, CS(=O)(=O)N1CC(=O)N2[C@H](C1)[C@H](c1ccc(C#Cc3ccc(F)cc3)cc1)[C@@H]2CO -3.12%, COc1cccc(C2c3cc4c(cc3OC(NNC(N)=O)C2C)OCO4)c1O (stereo unspecified) 3.12%, O=C1C=CC(O)(c2cc(=O)c3c(O)cc(O)cc3o2)C=C1 10%, Cc1ccc(C)c(C2NC(=O)c3ccccc3N2)c1 (stereo unspecified) -3.85%, CC(=O)Nc1cccc(NC(=O)CN2c3cccc4cccc(c34)S2(=O)=O)c1 0%, CC1=C(C(=O)N(C)C)CC(CC(=O)NCc2cccc3ccccc23)C(=O)N1CCCN1CCCC1=O (stereo unspecified) 21.4%, O=C(Cc1ccccc1)N1CC(=O)N2[C@H](CO)[C@@H](c3ccc(-c4ccccc4)cc3)[C@@H]2C1 -12.3%, O=C(c1cccc(S(=O)(=O)N2CCOCC2)c1)N1CCCC(C(F)(F)F)C1 (stereo unspecified) 9.58%, CCc1ccc(OCc2n[nH]c(=S)n2C(C)CCCC(C)C)cc1 (stereo unspecified) 6.46%, CC(C)NC(=O)NC(=O)COC(=O)c1ccc(S(=O)(=O)Nc2ccccc2)cc1 0%, COc1ccc(NC(=O)N(C)C[C@H]2Oc3c(cccc3N(C)C)C(=O)N([C@H](C)CO)C[C@H]2C)cc1 -3.12%, COc1ccc(C=NNC(=O)CCCC(=O)NN=Cc2ccc(OC)c(O)c2)cc1O 3.85%, C[C@H]1CN([C@@H](C)CO)S(=O)(=O)c2ccc(C#Cc3ccccc3F)cc2O[C@H]1CN(C)C(=O)c1ccc2c(c1)OCO2 0%, CN(C)C(=O)C(CCN1CCC(O)(c2ccc(Cl)cc2)CC1)(c1ccccc1)c1ccccc1 0%, COc1ccc(Cl)cc1NC(=O)CN(C)CC(=O)Nc1cc(OC)c(OC)c(OC)c1 16.7%, Cc1ccc(CN(C)CC(=O)Nc2cccc([N+](=O)[O-])c2)o1 6.46%, Cc1cccc(CC(=O)Nc2cccnc2)c1 9.79%, c1coc(-c2nc3ccccc3s2)c1 9.38%, NS(=O)(=O)c1ccc(S(=O)(=O)N(CCc2ccccc2)Cc2ccccn2)cc1 0%, O=C(C1CCCCC1)N1CC(=O)N2[C@@H](CO)[C@H](c3ccc(C#Cc4cccc(F)c4)cc3)[C@@H]2C1 -14.3%, O=C(CCNS(=O)(=O)c1cccc(C(F)(F)F)c1)NC1CC1 0.208%, CCOC(=O)c1cnc(COc2ccc(OC)cc2)[nH]c1=O 18.7%, O=C(C[C@@H]1CC[C@@H]2[C@H](COC[C@H](O)CN2Cc2ccc(Oc3ccccc3)cc2)O1)N1CCN(c2ccccc2)CC1 -7.14%, COc1ccc(-c2ccc3oc(-c4ccc(OC)cc4)c(C#CCO)c3c2)cc1 1.61%, COc1ccc(CCNc2c3ccccc3nc3ccccc23)cc1OC -2.92%, CC(C(=O)O)N(C(=O)c1ccccc1)c1ccc(F)cc1 (stereo unspecified) 6.67%, CCc1nc(C)cn1S(=O)(=O)c1ccc2c(c1)OCCO2 0%, CC(=O)O[C@H]1C(=O)[C@@]2(C)C([C@H](OC(=O)c3ccccc3)[C@]3(O)C[C@H](OC(=O)[C@H](O)[C@@H](NC(=O)c4ccccc4)c4ccccc4)C(C)=C1C3(C)C)[C@]1(OC(C)=O)CO[C@@H]1C[C@H]2O (stereo partly specified) 6.97%, COc1ccc(C(=O)c2cc([N+](=O)[O-])ccc2N2CCOCC2)cc1 -5.42%, CC(C)c1ccc(CN2CCN(S(=O)(=O)c3ccc(Cl)s3)CC2)cc1 10%, CC(=Nc1ccccc1O)c1sc2ccccc2c1O 6.46%, COc1ccc2c3c(n(C)c2c1)[C@H](CO)NCC31CCN(Cc2cc(-c3ccccc3)on2)CC1 -12.3%, CC(C)Oc1ccc(S(=O)(=O)N2CCOCC2)cc1NC(=O)CCCSc1ccccc1 6.46%, COc1ccc(-c2cc(NC=O)c3ncc(-c4ccc(OC)c(OC)c4)n3c2)cc1 -16.7%, CC1(C)CCN2CCC(C)(C)c3c(O)ccc1c32 -23.7%, COc1nc(-c2ccccc2)cc(-c2ccc3c(c2)OCO3)c1C#N 0%, C[C@@H]1CN([C@H](C)CO)S(=O)(=O)c2ccc(C#Cc3cccc(F)c3)cc2O[C@@H]1CN(C)C(=O)NC1CCCCC1 27.6%, CC1C2CCC(C2)C1OC(=O)c1ccccc1C(=O)O (stereo unspecified) -6.25%, COc1ccc2cc(CN(CC3CCCO3)C(=S)Nc3ccccc3)c(=O)[nH]c2c1 (stereo unspecified) 12.9%, COc1ccc(OC)c(-c2cc(-c3cccnc3)nc(N)c2C#N)c1 -6.97%, COc1ccc(/C=N/NC(=S)Nc2ccccc2[N+](=O)[O-])cc1O -10.7%, NS(=O)(=O)c1ccc2nc(NC(=O)c3ccc4c(c3)OCCO4)sc2c1 0%, CCN(CC)CCn1c2c(c(SCC(=O)Nc3ccc(F)c(F)c3)nc1=O)CCC2 12.9%, CN(C(=O)c1ccccc1OC1CCN(S(C)(=O)=O)CC1)C1CCOC1 (stereo unspecified) 6.46%, CCOC(=O)c1cc2c(=Cc3ccc(N(C)C)cc3)c3ccccc3n2[n+]1C 1.61%, O=C1CCC(CCc2nc3ccccc3[nH]2)(c2ccccc2)C(=O)N1 (stereo unspecified) 6.67%, COC(=O)c1ccsc1NC(=O)c1ccccc1 3.33%, CC(C)c1nc2oc3c(NCCO)ncnc3c2c2c1COC(C)(C)C2 0%, Cc1cc(C(=O)N/N=C/c2ccc(N(C)C)cc2)c2ccccc2n1 0%, CC(=O)N(C)C[C@@H]1Oc2cc(C#Cc3ccc(F)cc3)ccc2S(=O)(=O)N([C@H](C)CO)C[C@@H]1C 3.57%, C[C@H](CO)N1C[C@H](C)[C@H](CN(C)Cc2ccc(Cl)c(Cl)c2)Oc2ccc(NC(=O)C3CCCCC3)cc2CC1=O 13.8%, O=C(N/N=C\c1c(O)ccc2ccccc12)c1cncc(Br)c1 -33.3%, CN(C)CCCN(C(=O)c1ccco1)c1nc(-c2ccc(Cl)cc2)cs1 -3.85%, O=C(NC1CCCCC1)c1cc(C2CC2)nn1-c1ccccc1 25.8%, CCOC(=O)c1nc(C)sc1-c1ccnn1S(=O)(=O)c1ccccc1C(F)(F)F 12.9%, COc1ccc(CC(=O)NC(c2ccccc2)c2ccc(C)cc2)c(OC)c1 (stereo unspecified) 18.8%, CCCCc1nc(Cl)c(CO)n1Cc1ccc(-c2ccccc2-c2nn[nH]n2)cc1 0%
